The results in this text go back to publication PMC2994877, “A Full Pharmacological Analysis of the Three Turkey β-Adrenoceptors and Comparison with the Human β-Adrenoceptors” (PLoS ONE, 2010).

Amino acid sequences for entries named in this document (tags omitted).
UniProt A0A803YLI8, entry or part of it: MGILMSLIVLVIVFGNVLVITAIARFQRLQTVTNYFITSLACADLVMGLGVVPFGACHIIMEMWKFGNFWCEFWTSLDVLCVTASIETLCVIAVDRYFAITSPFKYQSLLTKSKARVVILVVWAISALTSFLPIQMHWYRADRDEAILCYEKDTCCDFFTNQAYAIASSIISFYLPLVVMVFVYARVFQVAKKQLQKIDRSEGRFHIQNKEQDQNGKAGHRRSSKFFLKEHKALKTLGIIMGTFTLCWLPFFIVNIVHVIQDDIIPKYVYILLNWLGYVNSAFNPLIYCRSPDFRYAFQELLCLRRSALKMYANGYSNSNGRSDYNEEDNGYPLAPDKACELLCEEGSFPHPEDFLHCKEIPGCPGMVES

The test concerns the target turkey β3C-adrenoceptor (tβ3C) (Meleagris gallopavo, UniProt A0A803YLI8). As to the kind of experiment: CRE-SPAP production, CHO tβ3C cells. To be noted: read-out: % isop max. It counts as cell-based.

With `COc1ccc(CC(C)NCC(O)c2ccc(O)c(NC=O)c2)cc1` (stereo not shown) [Formoterol], the Emax is 104 ± 3%.
